Consider 3 molecules from patent publication US8633177B2, “Nitroxyl (HNO) releasing compounds and uses thereof in treating diseases” (The United States of America, as represented by the …, priority 2010, dated 2014).

For the data set, the system named is metmyoglobin (metMb). The data set can be described thus: Reductive nitrosylation of metmyoglobin (HNO trapping). Set-up: species or system horse. To be noted: for yield of MbNO from metMb: 100 μM compound, 50 μM metMb, PBS pH 7.4, 37° C., out of a possible 50 μM; for yield of MbNO from metMb / effect of GSH on reductive nitrosylation of metMb: deaerated; for effect of GSH on reductive nitrosylation of metMb: 250 μM GSH.

The structures appear in SMILES notation.

`CC(=O)Oc1ccccc1C(=O)OCON=[N+]([O-])NC(C)C` [IPA/NO-aspirin, O^2-(Acetylsalicyloyloxymethyl)-1-(N-isopropylamino)-diazen-1-ium-1,2-diolate]: where the note is “2% guinea pig serum, physiological conditions”, the “reaction with metMb” value is “underwent reductive nitrosylation”. Take `CC(C)N[N+]([O-])=N[O-].[Na+]` [Compound 1, sodium 1-(N-isopropylamino)diazen-1-ium-1,2-diolate, reference compound]: the “yield of MbNO from metMb” value was “approximately 25 μM” and the “effect of GSH on reductive nitrosylation of metMb” value is recorded as “GSH enhanced the formation of MbNO”.

Regarding `CC(=O)OCO/N=[N+](\[O-])NC(C)C` [Compound 2, O^2-(acetoxymethyl)1-(isopropylamino)diazen-1-ium-1,2-diolate], the “yield of MbNO from metMb” value is about 47 µM and the “effect of GSH on reductive nitrosylation of metMb” value is “GSH inhibited reductive nitrosylation”.
